Laboratory results reported in the supplement of paper PMC10849652.
The list shows a part of the results.

Sequences of proteins named here, by UniProt entry; tags and fusion partners are left off. A change or cut given only in a name is not applied to a line headed by its entry.
UniProt P05090: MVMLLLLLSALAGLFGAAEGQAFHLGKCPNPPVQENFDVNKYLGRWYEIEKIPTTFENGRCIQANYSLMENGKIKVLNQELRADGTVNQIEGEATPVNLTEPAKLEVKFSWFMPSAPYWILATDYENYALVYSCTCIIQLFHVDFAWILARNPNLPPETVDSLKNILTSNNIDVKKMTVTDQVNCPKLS
UniProt Q8IW19: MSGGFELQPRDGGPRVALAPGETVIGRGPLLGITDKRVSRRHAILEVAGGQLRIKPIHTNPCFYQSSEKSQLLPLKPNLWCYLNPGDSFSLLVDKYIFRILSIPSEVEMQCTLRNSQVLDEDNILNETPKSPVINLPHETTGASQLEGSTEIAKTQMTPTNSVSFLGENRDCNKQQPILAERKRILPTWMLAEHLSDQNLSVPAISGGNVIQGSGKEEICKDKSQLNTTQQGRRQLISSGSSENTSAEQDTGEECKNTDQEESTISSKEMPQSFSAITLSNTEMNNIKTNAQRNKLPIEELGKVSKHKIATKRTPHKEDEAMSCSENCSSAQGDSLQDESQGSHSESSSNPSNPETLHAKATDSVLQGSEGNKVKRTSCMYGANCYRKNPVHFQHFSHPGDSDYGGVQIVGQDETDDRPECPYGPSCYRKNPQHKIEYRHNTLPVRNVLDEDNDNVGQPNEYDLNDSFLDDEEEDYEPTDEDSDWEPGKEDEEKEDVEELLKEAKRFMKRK
UniProt Q8N6S4: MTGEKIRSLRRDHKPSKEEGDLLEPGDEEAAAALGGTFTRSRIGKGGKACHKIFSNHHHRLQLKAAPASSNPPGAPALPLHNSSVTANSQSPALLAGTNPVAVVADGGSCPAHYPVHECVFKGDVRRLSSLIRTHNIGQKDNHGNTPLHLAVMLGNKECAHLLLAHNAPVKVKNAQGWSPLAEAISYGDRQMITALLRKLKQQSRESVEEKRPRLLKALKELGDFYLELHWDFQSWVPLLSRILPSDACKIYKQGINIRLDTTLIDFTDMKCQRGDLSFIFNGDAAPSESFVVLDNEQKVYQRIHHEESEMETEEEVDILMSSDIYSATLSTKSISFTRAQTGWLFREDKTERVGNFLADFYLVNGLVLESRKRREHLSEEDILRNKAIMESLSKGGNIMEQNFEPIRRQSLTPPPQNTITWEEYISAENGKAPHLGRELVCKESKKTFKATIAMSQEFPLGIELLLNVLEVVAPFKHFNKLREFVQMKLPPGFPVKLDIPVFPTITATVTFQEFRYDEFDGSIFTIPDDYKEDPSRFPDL
UniProt O43182: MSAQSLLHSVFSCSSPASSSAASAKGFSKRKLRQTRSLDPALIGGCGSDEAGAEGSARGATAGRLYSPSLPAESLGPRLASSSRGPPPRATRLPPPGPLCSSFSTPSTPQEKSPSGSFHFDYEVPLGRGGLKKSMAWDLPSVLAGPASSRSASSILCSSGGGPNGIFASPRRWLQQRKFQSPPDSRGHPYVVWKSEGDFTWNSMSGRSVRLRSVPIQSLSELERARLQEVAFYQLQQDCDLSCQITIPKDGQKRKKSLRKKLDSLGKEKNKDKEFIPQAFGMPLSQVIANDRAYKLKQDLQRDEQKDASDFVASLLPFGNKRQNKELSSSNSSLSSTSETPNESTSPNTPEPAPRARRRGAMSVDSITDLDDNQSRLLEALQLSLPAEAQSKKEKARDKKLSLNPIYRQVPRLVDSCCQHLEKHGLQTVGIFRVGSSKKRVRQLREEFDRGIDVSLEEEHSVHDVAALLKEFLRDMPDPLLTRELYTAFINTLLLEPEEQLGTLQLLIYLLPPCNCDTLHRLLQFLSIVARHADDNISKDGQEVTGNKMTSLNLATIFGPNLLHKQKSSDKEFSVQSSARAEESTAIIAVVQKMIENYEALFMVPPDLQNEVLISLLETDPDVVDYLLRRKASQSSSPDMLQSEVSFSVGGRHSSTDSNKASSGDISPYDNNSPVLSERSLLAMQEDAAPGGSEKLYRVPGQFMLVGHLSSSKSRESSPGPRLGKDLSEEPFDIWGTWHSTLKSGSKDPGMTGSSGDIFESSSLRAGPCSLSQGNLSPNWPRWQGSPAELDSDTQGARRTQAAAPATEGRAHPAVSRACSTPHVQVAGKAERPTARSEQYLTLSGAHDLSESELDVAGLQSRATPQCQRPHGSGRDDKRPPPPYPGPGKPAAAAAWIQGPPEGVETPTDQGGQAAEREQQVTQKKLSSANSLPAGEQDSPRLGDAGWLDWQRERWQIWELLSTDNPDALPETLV
UniProt Q9UNK9: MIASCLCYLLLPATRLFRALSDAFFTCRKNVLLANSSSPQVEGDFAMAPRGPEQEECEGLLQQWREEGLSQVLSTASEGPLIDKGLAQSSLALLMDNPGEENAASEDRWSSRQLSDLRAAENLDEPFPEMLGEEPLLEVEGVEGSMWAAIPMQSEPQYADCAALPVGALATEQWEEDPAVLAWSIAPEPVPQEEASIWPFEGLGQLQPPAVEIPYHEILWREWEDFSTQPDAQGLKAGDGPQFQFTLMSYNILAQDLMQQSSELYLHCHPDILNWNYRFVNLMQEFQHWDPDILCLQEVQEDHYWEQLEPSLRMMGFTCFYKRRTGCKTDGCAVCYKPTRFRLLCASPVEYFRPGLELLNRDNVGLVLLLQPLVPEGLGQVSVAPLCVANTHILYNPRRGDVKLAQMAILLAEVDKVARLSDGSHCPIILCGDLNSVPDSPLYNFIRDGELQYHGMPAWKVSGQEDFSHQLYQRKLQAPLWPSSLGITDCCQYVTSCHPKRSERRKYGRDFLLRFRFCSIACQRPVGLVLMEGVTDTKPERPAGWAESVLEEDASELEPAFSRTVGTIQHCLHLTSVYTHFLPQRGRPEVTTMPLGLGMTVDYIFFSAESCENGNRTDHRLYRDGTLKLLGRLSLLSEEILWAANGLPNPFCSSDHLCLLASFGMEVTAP
UniProt Q8NB46: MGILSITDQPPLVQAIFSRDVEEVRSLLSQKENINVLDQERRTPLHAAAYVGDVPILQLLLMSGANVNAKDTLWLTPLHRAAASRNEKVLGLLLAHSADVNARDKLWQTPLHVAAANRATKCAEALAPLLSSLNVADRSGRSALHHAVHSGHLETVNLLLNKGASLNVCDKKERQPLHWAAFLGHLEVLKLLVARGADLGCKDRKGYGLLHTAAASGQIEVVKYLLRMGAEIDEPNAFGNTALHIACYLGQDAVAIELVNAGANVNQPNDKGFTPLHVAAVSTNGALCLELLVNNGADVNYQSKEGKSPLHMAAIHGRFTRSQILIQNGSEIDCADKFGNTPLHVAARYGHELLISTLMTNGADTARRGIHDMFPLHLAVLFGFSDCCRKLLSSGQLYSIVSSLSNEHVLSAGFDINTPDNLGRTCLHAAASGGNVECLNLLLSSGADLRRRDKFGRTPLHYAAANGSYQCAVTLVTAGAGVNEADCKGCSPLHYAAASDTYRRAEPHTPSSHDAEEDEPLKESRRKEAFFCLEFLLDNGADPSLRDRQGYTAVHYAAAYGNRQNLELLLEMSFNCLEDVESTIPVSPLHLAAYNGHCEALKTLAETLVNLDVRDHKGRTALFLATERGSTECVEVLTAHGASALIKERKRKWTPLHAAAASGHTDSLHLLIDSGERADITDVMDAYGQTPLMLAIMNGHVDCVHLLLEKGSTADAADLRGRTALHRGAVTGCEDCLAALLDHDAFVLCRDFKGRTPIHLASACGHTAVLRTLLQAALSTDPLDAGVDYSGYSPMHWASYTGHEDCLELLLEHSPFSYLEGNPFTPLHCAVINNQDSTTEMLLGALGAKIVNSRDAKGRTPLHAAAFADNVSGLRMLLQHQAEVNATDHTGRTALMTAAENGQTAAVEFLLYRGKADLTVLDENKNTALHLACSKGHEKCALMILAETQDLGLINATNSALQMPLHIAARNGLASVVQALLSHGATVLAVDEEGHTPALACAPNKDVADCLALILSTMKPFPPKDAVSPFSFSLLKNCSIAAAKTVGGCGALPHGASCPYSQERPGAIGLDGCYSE
UniProt Q13017, whole entry, looked up: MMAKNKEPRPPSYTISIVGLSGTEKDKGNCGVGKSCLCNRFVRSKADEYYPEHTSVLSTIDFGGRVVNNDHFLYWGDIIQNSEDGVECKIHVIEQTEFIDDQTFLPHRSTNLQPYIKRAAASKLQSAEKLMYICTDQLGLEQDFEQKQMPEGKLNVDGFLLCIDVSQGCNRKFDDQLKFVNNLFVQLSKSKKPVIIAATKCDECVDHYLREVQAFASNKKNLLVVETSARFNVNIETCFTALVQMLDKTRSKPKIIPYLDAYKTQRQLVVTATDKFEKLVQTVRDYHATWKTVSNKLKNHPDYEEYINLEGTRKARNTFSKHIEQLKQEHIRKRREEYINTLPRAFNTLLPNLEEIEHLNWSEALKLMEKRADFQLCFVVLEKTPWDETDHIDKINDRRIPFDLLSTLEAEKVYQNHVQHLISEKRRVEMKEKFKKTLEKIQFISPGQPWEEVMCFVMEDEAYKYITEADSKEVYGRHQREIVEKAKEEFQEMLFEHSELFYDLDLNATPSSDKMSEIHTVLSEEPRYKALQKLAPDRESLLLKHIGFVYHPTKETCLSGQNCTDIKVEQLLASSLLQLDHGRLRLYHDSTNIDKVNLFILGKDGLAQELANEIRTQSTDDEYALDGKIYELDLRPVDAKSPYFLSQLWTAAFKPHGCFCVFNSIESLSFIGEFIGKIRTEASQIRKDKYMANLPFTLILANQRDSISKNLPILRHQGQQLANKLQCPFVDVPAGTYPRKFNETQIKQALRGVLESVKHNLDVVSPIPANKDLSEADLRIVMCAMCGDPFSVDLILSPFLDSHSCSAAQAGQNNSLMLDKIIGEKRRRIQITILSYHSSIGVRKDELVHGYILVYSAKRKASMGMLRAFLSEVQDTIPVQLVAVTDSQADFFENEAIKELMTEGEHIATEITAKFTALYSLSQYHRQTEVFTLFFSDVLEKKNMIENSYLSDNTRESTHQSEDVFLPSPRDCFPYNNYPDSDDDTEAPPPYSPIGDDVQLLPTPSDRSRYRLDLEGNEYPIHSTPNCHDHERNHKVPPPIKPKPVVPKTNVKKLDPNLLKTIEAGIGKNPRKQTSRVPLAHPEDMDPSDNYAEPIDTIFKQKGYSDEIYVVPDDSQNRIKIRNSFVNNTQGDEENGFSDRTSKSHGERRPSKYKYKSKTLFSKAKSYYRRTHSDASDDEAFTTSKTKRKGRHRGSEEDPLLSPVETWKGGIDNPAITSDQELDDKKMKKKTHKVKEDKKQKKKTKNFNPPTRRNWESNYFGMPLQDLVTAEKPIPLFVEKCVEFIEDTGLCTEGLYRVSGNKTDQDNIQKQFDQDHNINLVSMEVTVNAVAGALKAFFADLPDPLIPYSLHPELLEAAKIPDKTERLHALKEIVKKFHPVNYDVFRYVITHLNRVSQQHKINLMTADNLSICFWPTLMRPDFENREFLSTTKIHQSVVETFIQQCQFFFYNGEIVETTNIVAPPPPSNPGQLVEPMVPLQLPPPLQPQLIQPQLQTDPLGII

How the values were obtained:
Assay in all cases: log2 fold change, soluble protein after heating vs DMSO (PISA); higher = thermal stabilisation; K562 cells, 10 uM, 30 min; active = over 0.2 and 3.5 SD of the protein, either way, in both replicates (recomputed)
[1] = compound: CC1=C(SC2=C1C(=N[C@H](C3=NN=C(N32)C)CC(=O)N)C4=CC=C(C=C4)Cl)C
Procedure, shortened: (§1)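 Aliquots of K562 cells (2×10^6 cells/mL) treated with 10 μM compound for 30 min were heated for 3 min over 48°C-58°C. After pooling and extraction in PBS with 0.5% NP-40 at 4°C, soluble protein from a 21,000xg, 90 min spin was quantified by TMTpro 16plex LC-MS/MS with channel sums equalised. Thermal stability is expressed against control samples, from duplicates, as a log2 fold change.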

[2] = compound: CC1=C2C(=CC=C1)N=C(N(C2=O)C3=CC=CC=C3C)CN4C=NC5=C(N=CN=C54)N
Procedure, shortened: as §1

[3] = compound: Cc1sc2c(c1C)C(c1ccc(Cl)cc1)=N[C@@H](CC(=O)OC(C)(C)C)c1nnc(C)n1-2
Procedure, shortened: as §1

[4] = compound: c1ccc([C@@H]2C[C@H]2NC2CCNCC2)cc1
Procedure, shortened: as §1

[5] = compound: C1=CC=C(C=C1)[C@H](COC2=CC3=C(C=C2)NC(=O)N3)NC(=O)C4=CC=CN(C4=O)CC5=CC(=C(C=C5)F)F
Procedure, shortened: as §1

Measured: log2 fold change

APOD (UniProt P05090)
inactive: [1] 0.39 | [2] -0.139 | [3] -0.121 | [4] -0.034

APLF (UniProt Q8IW19)
inactive: [1] 0.035 | [4] 0.063

ANKRD13C (UniProt Q8N6S4)
inactive: [1] 0.134 | [2] 0.101 | [3] -0.008 | [4] -0.023

ARHGAP6 (UniProt O43182)
inactive: [3] -0.056

ANGEL1 (UniProt Q9UNK9)
inactive: [5] -0.256 | [2] -0.172 | [3] -0.042

ANKRD52 (UniProt Q8NB46)
inactive: [1] -0.204 | [2] -0.122 | [3] -0.156 | [4] 0.05

ARHGAP5 (UniProt Q13017)
inactive: [5] -0.095 | [1] 0.22 | [3] 0 | [4] 0.02

ANKRD11 (UniProt Q6UB99)
inactive: [5] -0.144 | [2] 0.194

APAF1 (UniProt O14727)
inactive: [1] 0.031 | [2] 0.112 | [4] 0.055
